Assay results as given in BindingDB's records for doi:10.1016/s0742-8413(97)00614-2 (University of Montana, 1997).

Biological target: T1, 5-hydroxytryptamine receptor 1A (Oryctolagus cuniculus, UniProt Q9MZ11)
T1 sequence (Q9MZ11 whole entry): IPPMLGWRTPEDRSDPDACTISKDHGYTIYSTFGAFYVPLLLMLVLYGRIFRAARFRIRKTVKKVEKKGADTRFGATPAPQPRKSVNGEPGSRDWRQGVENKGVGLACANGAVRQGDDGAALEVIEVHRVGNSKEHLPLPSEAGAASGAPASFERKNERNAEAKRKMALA

## CC(C)NC[C@H](O)COc1cccc2ccccc12 [Propanolol,(+/-)]
  Ki: 78 nM
